# In PMC10163288:
# Some of the results follow.
# B1: il2ra_site2_3nfp_sap_27_mot_6ba2120c21ebf0bdaaca7550098e1d96_0001_af2_000000030_0001_16_30_H_._HHH_b2_06425_0001_0000200015_0000001_0_0001 (protein)
# chain: SSSSDEEEVEKLLEEARETLEEGDEEKALEILLEAAAVAARARNHELFAEVMAEAYKIVNSSSSS
# B2: il2ra_site2_2erj_sap_28_mot_3b06bd03f1c6bceadc68eab912867b79_0001_000000296_0001_36_50_H_._HHH_b2_07081_0001_0000200005_0000001_0_0001 (protein)
# chain: SSSDTEELAREAEEEARQLLEEGDPEQAFSLLAEALVRLAELNDEEAEKIVSKVSHEVYQRSSSS
# B3: il2ra_site2_3nfp_sap_28_mot_HHH_b1_00050_000000292_0001_22_38_H_._2ddac98514d63a720a07c52076301d76_0001_af2_0001_0000400019_0000001_0_0001 (protein)
# chain: SSSSDEEALRQDLLIAAERAKEKASEEEREELEELIRELEREGDPELAEELFALVAEILLSSSSS
# B4: il2ra_site2_2erj_sap_22_mot_HHH_b1_04373_af2_000000118_0001_18_33_H_._HHH_b2_04240_af2_0001_0000300025_0000001_0_0001 (protein)
# chain: SSSSDAAELLDEAFEEARRLFKNGDPEEAEEVLKKVLEELEELNDPDAVETLRLLIRFLRESSSS
# B5: il2ra_site2_2erj_normal_mot_HHH_b2_03519_000000210_0001_20_37_H_._HHH_b2_01928_0001_0000100003_0000001_0 (protein)
# chain: SSSSSSDLEELREELEEIARKFDSEALEKMVEEAFRLAEEQNNPHLLEPLLKYAERLFSSSSSSS
# B6: il2ra_site2_2erj_sap_23_mot_HHH_b2_00938_af2_000000099_0001_43_55_H_._5511cb2176c827d1feb3066af2f534d5_0001_af2_0001_0000300014_0000001_0_0001 (protein)
# chain: DEEEIRKLLEELLGNPELVEEALRVIQKLAEFSKAPPEYILRYFRRQVERLGNPEAVIEFLEEAG
# B7: il2ra_site1_3nfp_normal_mot_16934e337390fad51c35c10e6cd388ee_0001_1_000000171_0001_52_65_H_._HHH_b1_03835_0001_0000400014_0000001_0_af2pred_0001_af2pred (protein)
# chain: SSSSDRNREFLRLAKEAAEAAKEGDPEEVEKLLERLREIAEEANSPIAKLYVERLERSIKSSSSS
# B8: il2ra_site2_2erj_sap_15_mot_HHH_b2_07568_000000046_0001_18_34_H_._HHH_b2_04504_af2_0001_0000100001_0000001_0_0001 (protein)
# chain: SSSSSEELRRLYELAVRILHLLARGDEEEVEELLQELEELARRLQSENAEEVVEAVKRTISSSSS
# B9: il2ra_site2_3nfp_sap_13_mot_HHH_b2_01155_000000159_0001_38_52_H_._HHH_b1_01485_0001_0000400030_0000001_1_0001 (protein)
# chain: DEVSEVIYELFEEGDPELAALLFWVRALVLEKDDPELEEELEKLIELAKRDPEEAKELAERLARK
# B10: il2ra_site2_3nfp_sap_17_mot_HHH_b2_06150_000000230_0001_39_53_H_._HHH_b1_00061_0001_0000300020_0000001_0_0001 (protein)
# chain: SSSSSHAEEYLRAALALLEEALEEGDEEFFRKLARLIEASAEQARDEEVVEEVRRLLEEFDSSSS
# B11: il2ra_site2_2erj_sap_19_mot_0c4a4c8772ac5c82cb0652bfb64fb1f0_0001_af2_000000188_0001_37_51_H_._HHH_b2_03323_0001_0000800061_0000001_0_0001 (protein)
# chain: SSSSDWLHRLYELAVEILRLIAEGDPEEARRLLEELEELAEERDSPAAEKIVERLEKDIESSSSS
# B12: il2ra_site2_3nfp_sap_17_mot_HHH_b1_07288_000000026_0001_20_36_H_._HHH_b2_07203_0001_0000400030_0000001_1_0001 (protein)
# chain: SSSSSSKAEEYVRAALELLRRIKDEELFEKHFEVIRLAIESNGDEELRELLEEIREEYRSSSSSS
# B13: il2ra_site1_1z92_sap_15_mot_01209686ea234b34325f918445e6eade_0001_af2_000000144_0001_18_33_H_._418b0f4789b0b78872a3c6dbebafb2a7_0001_af2_0001_0000100003_0000001 … (protein)
# chain: DEELEQLVEEARKYLPPELQRFLEELLEYLKKTGNPAYEFLIRQIVRKAKLDPEAAKKLVERMKR
# B14: il2ra_site2_3nfp_normal_mot_HHH_b2_05605_000000133_0001_1_20_H_._HHH_b1_03122_0001_0000200006_0000001_0 (protein)
# chain: SSSSDEEHERLWELSRRAFRLLEEGNPEEAEEVLEEARELAERNDSRVILRSIEELLKDLNSSSS
# B15: il2ra_site1_2b5i_sap_6_mot_HHH_b1_01495_af2_000000272_0001_42_56_H_._HHH_b2_04607_0001_0000300012_0000001_0_0001_af2pred_0001_af2pred (protein)
# chain: SSSTERELTRIAAEIVDELAEEFGLDTEQYNLLLRLAVKLVARGVSPEEIEEELEKLAKELSSSS
# B16: il2ra_site1_2b5i_normal_mot_HHH_b2_04910_000000118_0001_1_19_H_._HHH_b1_00058_af2_0001_0000400010_0000001_0 (protein)
# chain: SSSSSETEEAAKLFREADELDRNGNPEEAEEVLRKAEEIAEEAGNRLLLRMIEFALEAIESSSSS
# B17: il2ra_site1_1z92_normal_mot_934a834d9b8b770824478def2ff2f329_0001_af2_000000088_0001_15_30_H_._HHH_b2_03791_af2_0001_0000400037_0000001_0_af2pred_0001_af2pred_1 (protein)
# chain: SSSSSEAEEEARRIVEELVEEFGLSERLKRFLERLAEEALELGVDPEDIEKDLRHAAEHFSSSSS
# B18: il2ra_site1_3nfp_normal_mot_eb5a5eebac1e5153f932cc6c3f4b2787_0001_af2_000000065_0001_18_33_H_._31bff7180b20e3ed47766ceefd9934be_0001_af2_0001_0000300036_0000001 … (protein)
# chain: DEEKELAERIKEAVEKNDPELLEEVVRELLKKLGNPAEAARLFKELLKKAGLSPEEIFLALRLVA
# Target: il2ra, P01589
# Test: yeast display titration
row,Binder,apparent Kd
1,B1,inactive: no binding seen
2,B2,inactive: no binding seen
3,B3,inactive: no binding seen
4,B4,inactive: no binding seen
5,B5,inactive: no binding seen
6,B6,inactive: no binding seen
7,B7,inactive: no binding seen
8,B8,inactive: no binding seen
9,B9,inactive: no binding seen
10,B10,inactive: no binding seen
11,B11,inactive: no binding seen
12,B12,inactive: no binding seen
13,B13,inactive: no binding seen
14,B14,inactive: no binding seen
15,B15,inactive: no binding seen
16,B16,inactive: no binding seen
17,B17,inactive: no binding seen
18,B18,inactive: no binding seen

# Some of the entries above in a different format:
row | Binder | apparent Kd
5 | B5 | inactive: no binding seen
6 | B6 | inactive: no binding seen
